# From article PMC7819943, “Rice protein-binding microarrays: a tool to detect cis-acting elements near promoter regions in rice”
# Sequences of proteins named here, by UniProt entry; tags and fusion partners are left off.
# UniProt Q0JBA9, entry or part of it: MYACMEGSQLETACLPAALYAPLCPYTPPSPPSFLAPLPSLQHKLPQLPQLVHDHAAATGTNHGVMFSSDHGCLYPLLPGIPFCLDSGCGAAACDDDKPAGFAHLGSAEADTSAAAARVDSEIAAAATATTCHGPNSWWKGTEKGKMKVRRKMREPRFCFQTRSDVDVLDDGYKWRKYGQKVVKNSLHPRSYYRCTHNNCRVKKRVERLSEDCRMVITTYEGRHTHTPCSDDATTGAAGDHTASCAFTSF
# This is one part of the list.
# Molecular target: OsWRKY34 (Oryza sativa, UniProt Q0JBA9 1-250)
# Experiment: protein-binding microarray (RPBM); PBS, 2% BSA, 51.3 ng/ul salmon testes DNA, 50 uM zinc acetate, 200 nM TF, 25 C, 1 h; high values mean tight binding
# Conditions: protein: recombinant; tags: N-terminal polyhistidine and DsRed monomer fusion (pET32a); label: CyDye5-dUTP incorporated in the synthesized complementary strand; 3' TTTTT single-stranded linker to array surface; dsDNA, one strand shown
# How it was run: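 Binding signal is reported as fluorescence intensity per feature (arbitrary units) from an Axon 4000B scanner. Incubation used 200 nM of each Ni–NTA-purified, N-terminally polyhistidine- and DsRed-fused transcription factor from E. coli BL21-CodonPlus on a double-stranded custom Agilent array for 1 h at 25 °C, with 50 µM zinc acetate in the buffer, followed by washing.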
row,Sequence,binding signal
1,GCTTCAGTGAGCCACCGCGTCGTCGCGACGCCACGCCGCGCGGAGTCACCTAGTGCAG,8890 fluorescence intensity (a.u.)
2,GCCCATTTGGCCACCTATACCCGCACCCGCCGGTCCGGACCGGAGTCACCTAGTGCAG,11400 fluorescence intensity (a.u.)
3,ATGTTGACTAATTTCCTTAAATAATTTACTGCTACTGACTCGGAGTCACCTAGTGCAG,10500 fluorescence intensity (a.u.)
4,GCGCCCGACGTACGTGCTGTATTACTGTTGTTCCGTAGATCGGAGTCACCTAGTGCAG,8990 fluorescence intensity (a.u.)
5,AGCCAGATCCATCGCCTCGCCGCCGTGCCTCCGCGAGCCGCGGAGTCACCTAGTGCAG,9400 fluorescence intensity (a.u.)
6,TTCGTCTCCGTTTCGTCTTCTTCTTCTTCTTCTTCTTCGGCGGAGTCACCTAGTGCAG,8790 fluorescence intensity (a.u.)
7,GCCAGTCAGCCTCCTCCCTTGCCGCGCCTGCCTTCCTAGACGGAGTCACCTAGTGCAG,9440 fluorescence intensity (a.u.)
8,CATGTTTGACCGTTCGTCTTATTAAAACCTGTTATGAAATCGGAGTCACCTAGTGCAG,8370 fluorescence intensity (a.u.)
9,GGGTCATGTGGCATCTTTTCGTCATCATCGCCATGGCAAGCGGAGTCACCTAGTGCAG,10100 fluorescence intensity (a.u.)
10,AGAGCCGGTTTCTTGCATGAAAAACACATTTTTATTTTCCCGGAGTCACCTAGTGCAG,8840 fluorescence intensity (a.u.)
11,CCTCCCGCCGCCCCTTCCTCTCCCGCCGGCCGCCGCGCGGCGGAGTCACCTAGTGCAG,10500 fluorescence intensity (a.u.)
12,ATTGGTCGATGGTATTTATTGGATTGGGGCACTTGTTGATCGGAGTCACCTAGTGCAG,8370 fluorescence intensity (a.u.)
13,TTTCGTTTTCTACGTGCACGCTTCCCAAACTATTAAACGACGGAGTCACCTAGTGCAG,8160 fluorescence intensity (a.u.)
14,ATCCGGTGGAACATAACTGCTCTTTCCATCTCATTTTAACCGGAGTCACCTAGTGCAG,8700 fluorescence intensity (a.u.)
15,AGGAATAGGAGTACTCCTTTTTGGCACGTATAAACCCGCGCGGAGTCACCTAGTGCAG,8220 fluorescence intensity (a.u.)
16,TAACCACATATACACACTACTCCTCAACTGTTGATTTTAACGGAGTCACCTAGTGCAG,8770 fluorescence intensity (a.u.)
17,AACGTTGATCACGGAAACTAGGATTTGTCTTTTTTTTTTTCGGAGTCACCTAGTGCAG,8810 fluorescence intensity (a.u.)
18,GCCGAAGCTCGTCGCCGATGGCCATGTCCTCCTCCCGCTGCGGAGTCACCTAGTGCAG,8160 fluorescence intensity (a.u.)
19,TTTCTGCTAAAAGTTTTGGTTTTTTTAATGTTCCTACCGTCGGAGTCACCTAGTGCAG,8120 fluorescence intensity (a.u.)
20,ATTCCACTTTCAGTTTGGTTCATGAGATGCATTAAGTCTGCGGAGTCACCTAGTGCAG,9150 fluorescence intensity (a.u.)
21,CCGCCGCTACTCTCCATCATTTCAGTTTTCTCTCGAGTCACGGAGTCACCTAGTGCAG,10200 fluorescence intensity (a.u.)

row,Sequence,binding signal
1,CCCCTATTTAGCCGCGCCATTTTCCCCTCGCTAGCTGTGTCGGAGTCACCTAGTGCAG,8400 fluorescence intensity (a.u.)
2,TACTCCCCTCTGCTGCACTGGACTTGGGGTGGGGTGGAGCCGGAGTCACCTAGTGCAG,11400 fluorescence intensity (a.u.)
3,TTATATATATGTCTAGTACTATGTTGATTATCTCTCATGCCGGAGTCACCTAGTGCAG,8280 fluorescence intensity (a.u.)
4,TCTCCTTTTATAGCCACCCGTCGACTCCAACTCCTCTCAACGGAGTCACCTAGTGCAG,8640 fluorescence intensity (a.u.)
5,GCTCACTGTACCATGCGTGACAAAGCCGCGCTTTTTCTAGCGGAGTCACCTAGTGCAG,8470 fluorescence intensity (a.u.)
6,CATTTGACTTTTTTCTAGTCAAAGTTATTTATATTTAATTCGGAGTCACCTAGTGCAG,14100 fluorescence intensity (a.u.)
7,CTTCTGGTTTTGAGGTATTTGGGGTTACTTCACAAAACTTCGGAGTCACCTAGTGCAG,8490 fluorescence intensity (a.u.)
8,GACGTTTTCTGCCTCTTGCATATTGTCCTGTCCAAGCAAACGGAGTCACCTAGTGCAG,13000 fluorescence intensity (a.u.)
9,CGCCCCGCCGCCAAACCAATCTTTCCTCGCGGCGGCGTTTCGGAGTCACCTAGTGCAG,8350 fluorescence intensity (a.u.)
10,TCACAATGTGTGGGTAGCAAGGGGTTGTTTGTGATAGGGGCGGAGTCACCTAGTGCAG,12400 fluorescence intensity (a.u.)
11,TGGGGTCATGTTTGTACTTTGGCAACTGGTCGACTTCATACGGAGTCACCTAGTGCAG,18400 fluorescence intensity (a.u.)
12,CTTCTGTTTAAACGTACGCTTTCCCGTTGTCCTGTGGTTTCGGAGTCACCTAGTGCAG,12600 fluorescence intensity (a.u.)
13,ATTTATAGTCAAAGATTTGAAGGTTTGACTTTACTCTGCTCGGAGTCACCTAGTGCAG,11600 fluorescence intensity (a.u.)
14,TGTTTTTACACTTGCATTCCTACCAAAATCCTGTGTTTTTCGGAGTCACCTAGTGCAG,11000 fluorescence intensity (a.u.)
15,GAGAGAGACCTATCCACTCCTCCATGCGGCATCGCACCTCCGGAGTCACCTAGTGCAG,8070 fluorescence intensity (a.u.)
16,TTGACGCCGTTGACTTTTTAAAAAATATTTGACCGTTCTTCGGAGTCACCTAGTGCAG,37100 fluorescence intensity (a.u.)
17,CACTTCACTTCACGCATCCGCTTCGAGCACACAACGAGTCCGGAGTCACCTAGTGCAG,8360 fluorescence intensity (a.u.)
18,CCGCCATCTCCACCTCCGCCGCCGCGTCCAACTCCACCTTCGGAGTCACCTAGTGCAG,9110 fluorescence intensity (a.u.)
19,AAGCGGTACCATGGGCGGGAGGGTATTTCTGTCCTTTTGTCGGAGTCACCTAGTGCAG,17600 fluorescence intensity (a.u.)
20,TTCATATACGCATTGTTTCGATCCATGTCGACTCACACCCCGGAGTCACCTAGTGCAG,8190 fluorescence intensity (a.u.)
21,ATGACGCTATTTTACCTCACGTACCTCTTGTCCGTATGGCCGGAGTCACCTAGTGCAG,8560 fluorescence intensity (a.u.)

row,Sequence,binding signal
1,CCACTCCAACGCCATCACTCGTTCACTCCTACCCACGACACGGAGTCACCTAGTGCAG,13400 fluorescence intensity (a.u.)
2,TCCACCTGCCCCACTGCAGGCTGCAGCTCACACCCAAACGCGGAGTCACCTAGTGCAG,8120 fluorescence intensity (a.u.)
3,AAAGCTTCTTTTCACACCACTCATCTGCACACTTGCACTCCGGAGTCACCTAGTGCAG,10600 fluorescence intensity (a.u.)
4,ACGGGTTATGGGTTAAGAGTGGCATTTGGGCGAATCCCATCGGAGTCACCTAGTGCAG,9200 fluorescence intensity (a.u.)
5,CTTCTCTCTTTTCTTGATGTCCTTTTCTATTTTGCTTACCCGGAGTCACCTAGTGCAG,11800 fluorescence intensity (a.u.)
6,ATCACCACTCTCCAACATTTATCCGCCATACCTCGCTCCACGGAGTCACCTAGTGCAG,9850 fluorescence intensity (a.u.)
7,TTTTACGTATCTAGGTATTTGCTCAAGTTGTTCTTACCTTCGGAGTCACCTAGTGCAG,8140 fluorescence intensity (a.u.)
8,GAACATCCCACCTGCCCCAACCATGTCGGCGCCGCCGCCGCGGAGTCACCTAGTGCAG,8330 fluorescence intensity (a.u.)
9,CTGGGGATTGGGGAGGAGGCCGCCGGGGCGAGGCGGGAGACGGAGTCACCTAGTGCAG,10200 fluorescence intensity (a.u.)
10,ACTCCATTCGTTTCATATTATAAGACTTTCTAGCATTATCCGGAGTCACCTAGTGCAG,10200 fluorescence intensity (a.u.)
11,CCCATTTTACCATCTTGGAATCGTTGCATCTCTCAGACTCCGGAGTCACCTAGTGCAG,10600 fluorescence intensity (a.u.)
12,GTTGTTCTTGGCGGCTAGGTCGTGGGGTTTTCTTGTTTCGCGGAGTCACCTAGTGCAG,22800 fluorescence intensity (a.u.)
13,GAAAAGGAACTAGTAATAAGTAGTTAATTCTAGCTTAGCACGGAGTCACCTAGTGCAG,8190 fluorescence intensity (a.u.)
14,TGTATTGCAACACTAGTTGTCACTAGCTAGCCTATTTAGTCGGAGTCACCTAGTGCAG,8660 fluorescence intensity (a.u.)
15,TTATATATAGCCACACACGTCCTTGTCTAGTCCACTACACCGGAGTCACCTAGTGCAG,9710 fluorescence intensity (a.u.)
16,CCGGCCCAAGTCAAGTGCTCTGTTCTGTTCTCAGCCAACCCGGAGTCACCTAGTGCAG,9180 fluorescence intensity (a.u.)
17,TTTCTTCTTCTCGTCTCTTCTCGCCGCCGCCGCCGCAATGCGGAGTCACCTAGTGCAG,9300 fluorescence intensity (a.u.)
18,GGTCGGGTCGGGTCGGATCCCCTCGCCGCAACGGCCTTAGCGGAGTCACCTAGTGCAG,11500 fluorescence intensity (a.u.)
19,AATCTTGAAATTTGTGTACGTCTTATATTATACATCTCACCGGAGTCACCTAGTGCAG,8810 fluorescence intensity (a.u.)
20,ACATGACCCACGGGCCCCATCTCCCCATCTTCTTCTTCCTCGGAGTCACCTAGTGCAG,8190 fluorescence intensity (a.u.)
21,GTTTTTAGTCGACATGATAGCTTTGACCCTGTTGACTGGCCGGAGTCACCTAGTGCAG,11200 fluorescence intensity (a.u.)

# Exported bar-delimited: part of the list above.
row | Sequence | binding signal
10 | ACTCCATTCGTTTCATATTATAAGACTTTCTAGCATTATCCGGAGTCACCTAGTGCAG | 10200 fluorescence intensity (a.u.)
12 | GTTGTTCTTGGCGGCTAGGTCGTGGGGTTTTCTTGTTTCGCGGAGTCACCTAGTGCAG | 22800 fluorescence intensity (a.u.)
18 | GGTCGGGTCGGGTCGGATCCCCTCGCCGCAACGGCCTTAGCGGAGTCACCTAGTGCAG | 11500 fluorescence intensity (a.u.)

# The listing continues.

row,Sequence,binding signal
1,CTTTGGCTCCAGTTGTCCGTGATGCCTCCGTCTCTGATCCCGGAGTCACCTAGTGCAG,8060 fluorescence intensity (a.u.)
2,TCCATCTCCATTGGCCACCCACCACCATTGTCTTCTCCTCCGGAGTCACCTAGTGCAG,8110 fluorescence intensity (a.u.)
3,CTTATTTCAAATGTGTGGGTATACATATGTGCACATATATCGGAGTCACCTAGTGCAG,8440 fluorescence intensity (a.u.)
4,GCGATCACCACTTCACCGCCGGGTTCTGCCTCGCATTCTGCGGAGTCACCTAGTGCAG,10800 fluorescence intensity (a.u.)
5,CTGAATTTGCTGCTGCCGTTTCTGAATTTGTGGTGGTTTCCGGAGTCACCTAGTGCAG,8150 fluorescence intensity (a.u.)
6,TTTGCGCTCTGTTGGGTAGACCTCCTCGTTGGCATCTTGACGGAGTCACCTAGTGCAG,9910 fluorescence intensity (a.u.)
7,CACACACTTGGATGCTAGCTGCACCGCCATTTGTTTATTGCGGAGTCACCTAGTGCAG,8720 fluorescence intensity (a.u.)
8,AAAGGGGCGACCCCATCGGTCGGGTCGGGTTGGTTGGCGCCGGAGTCACCTAGTGCAG,8740 fluorescence intensity (a.u.)
9,TGGATCCGGTTCTTCTTCGCCGACGCCCCGGCCTCCGCCTCGGAGTCACCTAGTGCAG,9040 fluorescence intensity (a.u.)
10,GTAATGGTTGTGTGTATCCCTTGTTCGTGTAGAAGCCAGACGGAGTCACCTAGTGCAG,10800 fluorescence intensity (a.u.)
11,TCTTGTAGTCATCTCTCGCTCGCACACAACTAATAACCAACGGAGTCACCTAGTGCAG,8330 fluorescence intensity (a.u.)
12,TTCATTTTTTAAGGGTATGTTGTCTTATTTCTGCATGTCTCGGAGTCACCTAGTGCAG,10800 fluorescence intensity (a.u.)
13,TCTTATCCACTATCCTTTCCTACGTGGTGTTCGTTTAGTGCGGAGTCACCTAGTGCAG,9210 fluorescence intensity (a.u.)
14,GCACTCCTCGTTCGTCCGCCTCCAACGCTCACTCGCGCGACGGAGTCACCTAGTGCAG,12200 fluorescence intensity (a.u.)
15,ATTCTCTAAATGTTTGACGCTGTTGACTTTTTAAAACATGCGGAGTCACCTAGTGCAG,16600 fluorescence intensity (a.u.)
16,TATATCACATGTTAGTACATCTTCTTATTTTTTTTATAACCGGAGTCACCTAGTGCAG,8100 fluorescence intensity (a.u.)
17,GGAGTATATTCCTACTAAGTTGTTTACTCATTCTGTTCTACGGAGTCACCTAGTGCAG,9650 fluorescence intensity (a.u.)
18,CCCTTGGGTTGGAAACTCTCGCCATCGCCGTTGTCATCGTCGGAGTCACCTAGTGCAG,8770 fluorescence intensity (a.u.)
19,AAATACGCACACCTTGCCACCCTCCACTTAGGGAGCGTTCCGGAGTCACCTAGTGCAG,8290 fluorescence intensity (a.u.)
20,GTCGCGACGCCACCACTGCTCGGTTCTCTACCCCATCTCGCGGAGTCACCTAGTGCAG,10000 fluorescence intensity (a.u.)
21,GCGTACGGTTTCCTTTTTTTTCTGTTTTTTTTCTCTCTTCCGGAGTCACCTAGTGCAG,9130 fluorescence intensity (a.u.)
